Reference: article PMC8888479
These are yes or no findings as the source states them, for the method shown. Binding seen in cells or lysates may run through a third protein. Some binding calls cover weakened binding; strength is not graded here.

Amino acid sequences for entries named in this document (tags omitted). A change or cut given only in a name is not applied to a line headed by its entry. Chains listed by the source or under a name are the forms on record and can include a tag or linker.
UniProt P61586: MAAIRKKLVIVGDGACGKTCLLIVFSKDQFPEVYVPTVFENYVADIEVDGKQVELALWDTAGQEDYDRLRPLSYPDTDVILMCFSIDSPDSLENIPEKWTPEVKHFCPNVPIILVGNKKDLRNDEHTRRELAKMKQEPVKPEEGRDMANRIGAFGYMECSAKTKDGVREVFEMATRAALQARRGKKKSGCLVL
RGS3L-N460A (GAP-deficient mutant of the long isoform of regulator of G protein signaling 3) (P49796-1, form named): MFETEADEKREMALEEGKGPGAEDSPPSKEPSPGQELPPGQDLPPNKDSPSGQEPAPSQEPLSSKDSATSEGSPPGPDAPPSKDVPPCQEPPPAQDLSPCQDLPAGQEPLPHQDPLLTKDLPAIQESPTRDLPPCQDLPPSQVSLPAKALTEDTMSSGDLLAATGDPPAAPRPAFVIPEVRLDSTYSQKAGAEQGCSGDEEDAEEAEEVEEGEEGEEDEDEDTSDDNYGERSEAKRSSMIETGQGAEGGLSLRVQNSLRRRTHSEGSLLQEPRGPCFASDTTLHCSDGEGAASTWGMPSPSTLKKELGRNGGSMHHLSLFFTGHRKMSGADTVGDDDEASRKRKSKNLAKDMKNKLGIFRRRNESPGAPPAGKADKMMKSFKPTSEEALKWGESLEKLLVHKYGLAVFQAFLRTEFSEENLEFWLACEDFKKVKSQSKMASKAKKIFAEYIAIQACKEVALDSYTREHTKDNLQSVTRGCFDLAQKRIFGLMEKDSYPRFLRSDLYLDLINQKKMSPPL

Experiments:
[1] = target: T1, p190RhoGAP, endogenous in neonatal rat cardiomyocytes (rat (endogenous in NRCM)) (UniProt P81128); assay: co-IP; lysates of NRCM transduced with Ad-RGS3L-N460A, stimulated without or with 1 mM carbachol for 5 min; IP with anti-RGS3 or anti-p190RhoGAP antibody and protein-A-sepharose, 4 °C; buffer 50 mM Tris-HCl pH 7.4, 2 mM EDTA, 150 mM NaCl, 0.1% SDS, 1% Nonidet P-40, 10 mM NaF; immunoblot; carbachol increased the co-precipitate two-to-threefold
T1 sequence: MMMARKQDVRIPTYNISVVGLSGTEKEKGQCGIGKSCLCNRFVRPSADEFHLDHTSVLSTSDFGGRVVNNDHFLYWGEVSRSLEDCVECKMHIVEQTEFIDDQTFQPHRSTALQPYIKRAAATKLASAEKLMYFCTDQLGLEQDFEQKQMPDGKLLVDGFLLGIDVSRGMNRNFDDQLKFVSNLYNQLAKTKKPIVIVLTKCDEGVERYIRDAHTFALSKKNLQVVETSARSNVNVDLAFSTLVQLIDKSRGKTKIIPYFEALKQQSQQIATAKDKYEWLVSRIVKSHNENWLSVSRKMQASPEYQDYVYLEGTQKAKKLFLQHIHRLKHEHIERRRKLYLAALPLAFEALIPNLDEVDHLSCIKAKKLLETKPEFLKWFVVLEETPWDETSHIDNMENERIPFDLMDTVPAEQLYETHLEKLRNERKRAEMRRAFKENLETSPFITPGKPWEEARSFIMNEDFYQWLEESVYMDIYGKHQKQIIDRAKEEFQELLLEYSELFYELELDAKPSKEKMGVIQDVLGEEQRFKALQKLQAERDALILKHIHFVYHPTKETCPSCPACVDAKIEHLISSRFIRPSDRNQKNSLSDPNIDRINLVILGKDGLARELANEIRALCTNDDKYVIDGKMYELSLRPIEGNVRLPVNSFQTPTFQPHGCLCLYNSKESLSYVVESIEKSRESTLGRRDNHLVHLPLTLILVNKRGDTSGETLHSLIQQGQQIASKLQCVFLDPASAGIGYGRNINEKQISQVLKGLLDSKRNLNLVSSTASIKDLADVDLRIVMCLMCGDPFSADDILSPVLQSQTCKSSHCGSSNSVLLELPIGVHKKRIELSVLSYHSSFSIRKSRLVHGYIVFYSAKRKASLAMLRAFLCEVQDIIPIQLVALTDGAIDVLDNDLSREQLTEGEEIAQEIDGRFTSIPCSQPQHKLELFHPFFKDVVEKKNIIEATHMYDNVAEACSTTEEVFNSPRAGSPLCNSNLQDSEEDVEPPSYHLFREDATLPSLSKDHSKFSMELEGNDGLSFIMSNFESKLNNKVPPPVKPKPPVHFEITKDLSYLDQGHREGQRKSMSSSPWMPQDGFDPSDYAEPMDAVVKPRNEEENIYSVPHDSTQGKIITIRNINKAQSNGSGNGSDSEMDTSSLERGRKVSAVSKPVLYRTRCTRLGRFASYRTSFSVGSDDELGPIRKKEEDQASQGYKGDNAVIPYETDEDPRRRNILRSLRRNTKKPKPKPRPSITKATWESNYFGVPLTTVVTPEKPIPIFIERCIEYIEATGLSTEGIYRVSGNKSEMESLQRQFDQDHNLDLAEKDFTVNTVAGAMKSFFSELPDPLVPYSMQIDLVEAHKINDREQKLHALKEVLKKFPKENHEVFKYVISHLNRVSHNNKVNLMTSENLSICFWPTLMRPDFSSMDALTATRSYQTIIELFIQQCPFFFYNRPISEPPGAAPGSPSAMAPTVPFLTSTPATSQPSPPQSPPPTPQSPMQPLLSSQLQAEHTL

[2] = target: constitutively active RhoAQ63L-GST (UniProt P61586); assay: pull-down; lysates of NRCM transduced with Ad-EGFP or Ad-RGS3L-N460A, without or with carbachol for 5 min; incubated 60 min at 4 °C with glutathione-sepharose magnetic beads coated with RhoAQ63L-GST or Rac1Q61L-GST; 50 mM Tris-HCl pH 7.4, 10 mM MgCl2, 150 mM NaCl, 1 mM DTT, 1% Triton X-100; endogenous p190RhoGAP detected by immunoblot; only the target purified
[3] = target: RGS3L-N460A (GAP-deficient mutant of the long isoform of regulator of G protein signaling 3) (UniProt P49796); assay: co-IP; lysates of NRCM transduced with Ad-RGS3L-N460A, stimulated without or with 1 mM carbachol for 5 min; IP with anti-RGS3 or anti-p190RhoGAP antibody and protein-A-sepharose, 4 °C; buffer 50 mM Tris-HCl pH 7.4, 2 mM EDTA, 150 mM NaCl, 0.1% SDS, 1% Nonidet P-40, 10 mM NaF; immunoblot; carbachol increased the co-precipitate two-to-threefold
[4] = target: constitutively active RhoAQ63L-GST (UniProt P61586); assay: pull-down; lysates of HEK-293 cells transfected with p190RhoGAP, with or without RGS3L-N460A, RGS3L or RGS3S; incubated 60 min at 4 °C with glutathione-sepharose magnetic beads coated with RhoAQ63L-GST or Rac1Q61L-GST; 50 mM Tris-HCl pH 7.4, 10 mM MgCl2, 150 mM NaCl, 1 mM DTT, 1% Triton X-100; p190RhoGAP detected by immunoblot; only the target purified

## RGS3L-N460A (GAP-deficient mutant of the long isoform of regulator of G protein signaling 3) (from UniProt P49796-1 1-519)
[1]
  binding: binds

B1: p190RhoGAP, endogenous in neonatal rat cardiomyocytes (protein, UniProt P81128 1-1499)
chain: MMMARKQDVRIPTYNISVVGLSGTEKEKGQCGIGKSCLCNRFVRPSADEFHLDHTSVLSTSDFGGRVVNNDHFLYWGEVSRSLEDCVECKMHIVEQTEFIDDQTFQPHRSTALQPYIKRAAATKLASAEKLMYFCTDQLGLEQDFEQKQMPDGKLLVDGFLLGIDVSRGMNRNFDDQLKFVSNLYNQLAKTKKPIVIVLTKCDEGVERYIRDAHTFALSKKNLQVVETSARSNVNVDLAFSTLVQLIDKSRGKTKIIPYFEALKQQSQQIATAKDKYEWLVSRIVKSHNENWLSVSRKMQASPEYQDYVYLEGTQKAKKLFLQHIHRLKHEHIERRRKLYLAALPLAFEALIPNLDEVDHLSCIKAKKLLETKPEFLKWFVVLEETPWDETSHIDNMENERIPFDLMDTVPAEQLYETHLEKLRNERKRAEMRRAFKENLETSPFITPGKPWEEARSFIMNEDFYQWLEESVYMDIYGKHQKQIIDRAKEEFQELLLEYSELFYELELDAKPSKEKMGVIQDVLGEEQRFKALQKLQAERDALILKHIHFVYHPTKETCPSCPACVDAKIEHLISSRFIRPSDRNQKNSLSDPNIDRINLVILGKDGLARELANEIRALCTNDDKYVIDGKMYELSLRPIEGNVRLPVNSFQTPTFQPHGCLCLYNSKESLSYVVESIEKSRESTLGRRDNHLVHLPLTLILVNKRGDTSGETLHSLIQQGQQIASKLQCVFLDPASAGIGYGRNINEKQISQVLKGLLDSKRNLNLVSSTASIKDLADVDLRIVMCLMCGDPFSADDILSPVLQSQTCKSSHCGSSNSVLLELPIGVHKKRIELSVLSYHSSFSIRKSRLVHGYIVFYSAKRKASLAMLRAFLCEVQDIIPIQLVALTDGAIDVLDNDLSREQLTEGEEIAQEIDGRFTSIPCSQPQHKLELFHPFFKDVVEKKNIIEATHMYDNVAEACSTTEEVFNSPRAGSPLCNSNLQDSEEDVEPPSYHLFREDATLPSLSKDHSKFSMELEGNDGLSFIMSNFESKLNNKVPPPVKPKPPVHFEITKDLSYLDQGHREGQRKSMSSSPWMPQDGFDPSDYAEPMDAVVKPRNEEENIYSVPHDSTQGKIITIRNINKAQSNGSGNGSDSEMDTSSLERGRKVSAVSKPVLYRTRCTRLGRFASYRTSFSVGSDDELGPIRKKEEDQASQGYKGDNAVIPYETDEDPRRRNILRSLRRNTKKPKPKPRPSITKATWESNYFGVPLTTVVTPEKPIPIFIERCIEYIEATGLSTEGIYRVSGNKSEMESLQRQFDQDHNLDLAEKDFTVNTVAGAMKSFFSELPDPLVPYSMQIDLVEAHKINDREQKLHALKEVLKKFPKENHEVFKYVISHLNRVSHNNKVNLMTSENLSICFWPTLMRPDFSSMDALTATRSYQTIIELFIQQCPFFFYNRPISEPPGAAPGSPSAMAPTVPFLTSTPATSQPSPPQSPPPTPQSPMQPLLSSQLQAEHTL
[2]
  binding: binds
[3]
  binding: binds

B2: p190RhoGAP, overexpressed in HEK-293 cells (protein, UniProt P81128 1-1499)
chain: MMMARKQDVRIPTYNISVVGLSGTEKEKGQCGIGKSCLCNRFVRPSADEFHLDHTSVLSTSDFGGRVVNNDHFLYWGEVSRSLEDCVECKMHIVEQTEFIDDQTFQPHRSTALQPYIKRAAATKLASAEKLMYFCTDQLGLEQDFEQKQMPDGKLLVDGFLLGIDVSRGMNRNFDDQLKFVSNLYNQLAKTKKPIVIVLTKCDEGVERYIRDAHTFALSKKNLQVVETSARSNVNVDLAFSTLVQLIDKSRGKTKIIPYFEALKQQSQQIATAKDKYEWLVSRIVKSHNENWLSVSRKMQASPEYQDYVYLEGTQKAKKLFLQHIHRLKHEHIERRRKLYLAALPLAFEALIPNLDEVDHLSCIKAKKLLETKPEFLKWFVVLEETPWDETSHIDNMENERIPFDLMDTVPAEQLYETHLEKLRNERKRAEMRRAFKENLETSPFITPGKPWEEARSFIMNEDFYQWLEESVYMDIYGKHQKQIIDRAKEEFQELLLEYSELFYELELDAKPSKEKMGVIQDVLGEEQRFKALQKLQAERDALILKHIHFVYHPTKETCPSCPACVDAKIEHLISSRFIRPSDRNQKNSLSDPNIDRINLVILGKDGLARELANEIRALCTNDDKYVIDGKMYELSLRPIEGNVRLPVNSFQTPTFQPHGCLCLYNSKESLSYVVESIEKSRESTLGRRDNHLVHLPLTLILVNKRGDTSGETLHSLIQQGQQIASKLQCVFLDPASAGIGYGRNINEKQISQVLKGLLDSKRNLNLVSSTASIKDLADVDLRIVMCLMCGDPFSADDILSPVLQSQTCKSSHCGSSNSVLLELPIGVHKKRIELSVLSYHSSFSIRKSRLVHGYIVFYSAKRKASLAMLRAFLCEVQDIIPIQLVALTDGAIDVLDNDLSREQLTEGEEIAQEIDGRFTSIPCSQPQHKLELFHPFFKDVVEKKNIIEATHMYDNVAEACSTTEEVFNSPRAGSPLCNSNLQDSEEDVEPPSYHLFREDATLPSLSKDHSKFSMELEGNDGLSFIMSNFESKLNNKVPPPVKPKPPVHFEITKDLSYLDQGHREGQRKSMSSSPWMPQDGFDPSDYAEPMDAVVKPRNEEENIYSVPHDSTQGKIITIRNINKAQSNGSGNGSDSEMDTSSLERGRKVSAVSKPVLYRTRCTRLGRFASYRTSFSVGSDDELGPIRKKEEDQASQGYKGDNAVIPYETDEDPRRRNILRSLRRNTKKPKPKPRPSITKATWESNYFGVPLTTVVTPEKPIPIFIERCIEYIEATGLSTEGIYRVSGNKSEMESLQRQFDQDHNLDLAEKDFTVNTVAGAMKSFFSELPDPLVPYSMQIDLVEAHKINDREQKLHALKEVLKKFPKENHEVFKYVISHLNRVSHNNKVNLMTSENLSICFWPTLMRPDFSSMDALTATRSYQTIIELFIQQCPFFFYNRPISEPPGAAPGSPSAMAPTVPFLTSTPATSQPSPPQSPPPTPQSPMQPLLSSQLQAEHTL
[4]
  binding: binds
